# According to patent US20250296964A1 (INTEGRATED DNA TECHNOLOGIES, published 2025):
# By UniProt entry, the sequences of proteins in these tests, tags left out. Where a name states a change or a piece, a line headed by the entry shows the natural chain unless it says otherwise.
# UniProt Q12888: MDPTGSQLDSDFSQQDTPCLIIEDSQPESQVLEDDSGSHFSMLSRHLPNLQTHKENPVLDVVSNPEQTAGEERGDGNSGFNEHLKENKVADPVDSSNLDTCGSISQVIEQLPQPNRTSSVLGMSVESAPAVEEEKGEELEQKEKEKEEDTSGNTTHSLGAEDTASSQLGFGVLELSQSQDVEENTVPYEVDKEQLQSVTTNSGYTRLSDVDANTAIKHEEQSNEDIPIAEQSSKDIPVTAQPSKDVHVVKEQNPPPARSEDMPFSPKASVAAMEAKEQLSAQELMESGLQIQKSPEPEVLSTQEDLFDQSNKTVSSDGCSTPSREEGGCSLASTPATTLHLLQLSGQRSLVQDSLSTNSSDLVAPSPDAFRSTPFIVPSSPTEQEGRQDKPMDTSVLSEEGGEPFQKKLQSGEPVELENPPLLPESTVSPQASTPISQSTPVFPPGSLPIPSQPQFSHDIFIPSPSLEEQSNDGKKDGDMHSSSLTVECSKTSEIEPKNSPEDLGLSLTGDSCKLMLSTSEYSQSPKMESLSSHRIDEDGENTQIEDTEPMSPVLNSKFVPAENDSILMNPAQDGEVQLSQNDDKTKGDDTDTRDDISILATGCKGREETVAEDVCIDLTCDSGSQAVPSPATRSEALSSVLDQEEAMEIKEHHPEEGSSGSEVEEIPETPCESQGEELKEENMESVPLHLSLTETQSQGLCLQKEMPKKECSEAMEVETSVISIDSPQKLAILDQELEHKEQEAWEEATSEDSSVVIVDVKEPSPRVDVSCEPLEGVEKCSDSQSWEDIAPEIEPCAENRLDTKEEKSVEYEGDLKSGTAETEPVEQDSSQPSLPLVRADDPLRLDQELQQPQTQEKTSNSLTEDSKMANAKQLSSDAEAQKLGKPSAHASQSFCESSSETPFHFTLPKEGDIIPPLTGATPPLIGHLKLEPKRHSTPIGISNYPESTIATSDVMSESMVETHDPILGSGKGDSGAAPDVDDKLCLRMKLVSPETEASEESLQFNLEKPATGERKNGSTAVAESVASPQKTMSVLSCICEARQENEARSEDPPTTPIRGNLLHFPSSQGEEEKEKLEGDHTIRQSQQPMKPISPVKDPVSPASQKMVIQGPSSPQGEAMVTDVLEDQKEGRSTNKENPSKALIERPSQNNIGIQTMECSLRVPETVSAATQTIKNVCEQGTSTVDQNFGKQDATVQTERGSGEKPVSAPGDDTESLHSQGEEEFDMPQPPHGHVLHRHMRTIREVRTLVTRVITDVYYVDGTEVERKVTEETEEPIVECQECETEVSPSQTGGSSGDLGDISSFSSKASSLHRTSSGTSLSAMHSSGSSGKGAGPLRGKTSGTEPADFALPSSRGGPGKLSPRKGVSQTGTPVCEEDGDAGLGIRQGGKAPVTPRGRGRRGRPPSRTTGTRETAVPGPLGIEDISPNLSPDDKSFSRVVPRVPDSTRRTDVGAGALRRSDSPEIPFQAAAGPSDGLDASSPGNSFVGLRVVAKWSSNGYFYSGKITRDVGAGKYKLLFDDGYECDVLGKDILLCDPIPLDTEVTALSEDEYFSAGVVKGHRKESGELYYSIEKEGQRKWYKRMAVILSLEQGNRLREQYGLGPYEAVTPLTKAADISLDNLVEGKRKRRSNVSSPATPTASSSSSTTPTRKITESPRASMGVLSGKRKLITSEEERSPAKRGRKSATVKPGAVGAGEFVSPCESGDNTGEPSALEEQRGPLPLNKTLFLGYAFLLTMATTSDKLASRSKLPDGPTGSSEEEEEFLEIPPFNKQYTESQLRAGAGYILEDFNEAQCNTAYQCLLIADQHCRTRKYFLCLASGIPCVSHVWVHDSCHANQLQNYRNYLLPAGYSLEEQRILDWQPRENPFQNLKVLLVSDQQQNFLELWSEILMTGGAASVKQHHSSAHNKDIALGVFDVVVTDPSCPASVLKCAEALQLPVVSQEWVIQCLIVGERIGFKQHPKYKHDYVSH
# Biological target: 53BP1 (human, UniProt Q12888 1-1972, limits assumed)
# Assay: cell-based or functional assay
binder,measurement,value
ubiquitin variant A [Ubv-A] (designed binder) MLIFVRMLTGKMIELEVEPSDTIENVKAKIQDHEGIPPDQQRLAFQGKSLEDGRTLSDYNILKDPKKMPLLRLR,"increase in rates of HDR in primary T cells (Ubv-A protein or mRNA, NGS)",> 2 fold
